Measured values from article PMC11137995.

Chains of the proteins cited; added tags and fusions are not shown.
UniProt P45973: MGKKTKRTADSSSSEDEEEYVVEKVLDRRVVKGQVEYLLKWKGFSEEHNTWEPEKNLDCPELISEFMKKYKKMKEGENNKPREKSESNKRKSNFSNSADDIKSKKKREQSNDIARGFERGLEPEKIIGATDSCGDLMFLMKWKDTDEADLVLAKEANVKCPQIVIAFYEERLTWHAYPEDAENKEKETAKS
UniProt Q13111: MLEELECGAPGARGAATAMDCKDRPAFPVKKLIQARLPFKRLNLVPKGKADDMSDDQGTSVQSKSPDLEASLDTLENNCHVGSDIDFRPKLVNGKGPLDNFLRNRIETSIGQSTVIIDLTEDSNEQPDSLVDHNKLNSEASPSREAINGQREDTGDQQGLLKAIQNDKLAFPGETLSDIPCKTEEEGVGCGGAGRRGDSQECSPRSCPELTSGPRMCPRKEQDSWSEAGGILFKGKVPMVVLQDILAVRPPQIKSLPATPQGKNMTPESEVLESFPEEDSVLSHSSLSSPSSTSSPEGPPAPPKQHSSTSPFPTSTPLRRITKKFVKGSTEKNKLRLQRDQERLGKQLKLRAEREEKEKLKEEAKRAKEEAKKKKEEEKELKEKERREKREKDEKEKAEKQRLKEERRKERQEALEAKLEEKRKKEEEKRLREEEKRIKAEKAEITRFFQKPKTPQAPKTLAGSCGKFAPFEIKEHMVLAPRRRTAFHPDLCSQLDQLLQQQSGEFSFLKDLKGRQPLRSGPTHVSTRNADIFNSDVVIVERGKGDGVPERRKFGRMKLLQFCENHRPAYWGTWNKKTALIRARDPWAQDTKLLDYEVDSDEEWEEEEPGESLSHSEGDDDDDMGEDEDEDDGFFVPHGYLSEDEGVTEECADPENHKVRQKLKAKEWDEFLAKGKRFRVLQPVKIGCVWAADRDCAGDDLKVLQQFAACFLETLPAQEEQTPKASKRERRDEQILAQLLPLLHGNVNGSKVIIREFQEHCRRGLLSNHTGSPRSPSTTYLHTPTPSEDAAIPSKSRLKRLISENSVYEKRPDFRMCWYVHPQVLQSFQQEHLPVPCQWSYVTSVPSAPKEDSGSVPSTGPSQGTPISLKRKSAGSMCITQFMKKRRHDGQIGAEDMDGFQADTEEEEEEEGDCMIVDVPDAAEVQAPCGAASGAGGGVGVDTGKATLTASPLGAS
UniProt Q13547: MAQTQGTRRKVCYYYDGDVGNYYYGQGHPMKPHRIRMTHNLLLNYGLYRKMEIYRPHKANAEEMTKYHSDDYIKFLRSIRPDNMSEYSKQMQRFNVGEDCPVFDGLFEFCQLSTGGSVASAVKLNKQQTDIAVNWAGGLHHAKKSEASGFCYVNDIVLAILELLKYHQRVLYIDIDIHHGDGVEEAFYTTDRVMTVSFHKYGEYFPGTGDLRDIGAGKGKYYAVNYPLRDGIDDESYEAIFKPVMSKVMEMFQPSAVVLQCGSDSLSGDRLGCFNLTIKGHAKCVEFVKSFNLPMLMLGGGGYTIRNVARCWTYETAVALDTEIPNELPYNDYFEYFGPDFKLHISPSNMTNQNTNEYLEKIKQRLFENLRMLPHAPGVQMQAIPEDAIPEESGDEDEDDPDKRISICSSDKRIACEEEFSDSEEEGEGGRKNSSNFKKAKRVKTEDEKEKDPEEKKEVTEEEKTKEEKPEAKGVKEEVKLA

B1: Pogo Transposable Element with ZNF Domain (protein, UniProt Q7Z3K3 1-1410)
chain: MADTDLFMECEEEELEPWQKISDVIEDSVVEDYNSVDKTTTVSVSQQPVSAPVPIAAHASVAGHLSTSTTVSSSGAQNSDSTKKTLVTLIANNNAGNPLVQQGGQPLILTQNPAPGLGTMVTQPVLRPVQVMQNANHVTSSPVASQPIFITTQGFPVRNVRPVQNAMNQVGIVLNVQQGQTVRPITLVPAPGTQFVKPTVGVPQVFSQMTPVRPGSTMPVRPTTNTFTTVIPATLTIRSTVPQSQSQQTKSTPSTSTTPTATQPTSLGQLAVQSPGQSNQTTNPKLAPSFPSPPAVSIASFVTVKRPGVTGENSNEVAKLVNTLNTIPSLGQSPGPVVVSNNSSAHGSQRTSGPESSMKVTSSIPVFDLQDGGRKICPRCNAQFRVTEALRGHMCYCCPEMVEYQKKGKSLDSEPSVPSAAKPPSPEKTAPVASTPSSTPIPALSPPTKVPEPNENVGDAVQTKLIMLVDDFYYGRDGGKVAQLTNFPKVATSFRCPHCTKRLKNNIRFMNHMKHHVELDQQNGEVDGHTICQHCYRQFSTPFQLQCHLENVHSPYESTTKCKICEWAFESEPLFLQHMKDTHKPGEMPYVCQVCQYRSSLYSEVDVHFRMIHEDTRHLLCPYCLKVFKNGNAFQQHYMRHQKRNVYHCNKCRLQFLFAKDKIEHKLQHHKTFRKPKQLEGLKPGTKVTIRASRGQPRTVPVSSNDTPPSALQEAAPLTSSMDPLPVFLYPPVQRSIQKRAVRKMSVMGRQTCLECSFEIPDFPNHFPTYVHCSLCRYSTCCSRAYANHMINNHVPRKSPKYLALFKNSVSGIKLACTSCTFVTSVGDAMAKHLVFNPSHRSSSILPRGLTWIAHSRHGQTRDRVHDRNVKNMYPPPSFPTNKAATVKSAGATPAEPEELLTPLAPALPSPASTATPPPTPTHPQALALPPLATEGAECLNVDDQDEGSPVTQEPELASGGGGSGGVGKKEQLSVKKLRVVLFALCCNTEQAAEHFRNPQRRIRRWLRRFQASQGENLEGKYLSFEAEEKLAEWVLTQREQQLPVNEETLFQKATKIGRSLEGGFKISYEWAVRFMLRHHLTPHARRAVAHTLPKDVAENAGLFIDFVQRQIHNQDLPLSMIVAIDEISLFLDTEVLSSDDRKENALQTVGTGEPWCDVVLAILADGTVLPTLVFYRGQMDQPANMPDSILLEAKESGYSDDEIMELWSTRVWQKHTACQRSKGMLVMDCHRTHLSEEVLAMLSASSTLPAVVPAGCSSKIQPLDVCIKRTVKNFLHKKWKEQAREMADTACDSDVLLQLVLVWLGEVLGVIGDCPELVQRSFLVASVLPGPDGNINSPTRNADMQEELIASLEEQLKLSGEHSESSTPRPRSSPEETIEPESLHQLFEGESETESFYGFEEADLDLMEI

Target: full-length CBX5 (HA tagged, NM_001127322.1), encoding Heterochromatin Protein 1α (human) (UniProt P45973)
Test: affinity purification with mass spectrometry; IP samples of HEK293T cells transfected with the HP1α expression vectors and control vectors, analysed by ESI-MS; IP buffer 20 mM Tris-HCl pH 7.4, 150 mM NaCl, 1 mM EDTA, 1% NP-40; protein A + G agarose beads

binding, binds:
Chromatin Assembly Factor 1 Subunit A (from UniProt Q13111 1-956)
HDAC1 detected by ESI-MS in the HP1α IP sample of HEK293T cells (from UniProt Q13547 1-482) (enzyme)
B1

These are yes or no findings as the source states them, for the method shown. Binding seen in cells or lysates may run through a third protein. A yes stands for co-enrichment or nearness to the bait. Other partners may have been found.
